# Some of the results follow.
# B1: OS9-MRH (Homo sapiens), Q13438 (protein)
# chain: IPELLSPMRDAPCLLKTKDWWTYEFCYGRHIQQYHMEDSEIKGEVLYLGYYQSAFDWDDETAKASKQHRLKRYHSQTYGNGSKCDLNGRPREAEVRFLCDEGAGISGDYIDRVDEPLSCSYVLTIRTPRLCPHPLLRPPPSAAPQAI
# Assays:
# Assay in all cases: glycan array binding signal (z-score within array); higher = stronger binding
# Conditions in all cases: glycan notation: IUPAC condensed, linker removed
# [1] = biological target: Neu5Ac(a2-6)GlcNAc(b1-4)GlcNAc
# Procedure, shortened: (§1)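 Glycan array data were curated from 3228 arrays in the Consortium for Functional Glycomics database and kept only where the protein sequence was available. Glycan names were converted to IUPAC-condensed notation, and columns mapping to the same glycan were averaged. The binding signal is a within-array Z-score, averaged across arrays of the same protein sequence at different concentrations or buffers and across linkers. Negative Z-scores can be read as non-binding.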
# [2] = biological target: Neu5Ac(a2-6)GlcNAc(b1-4)GlcNAc(b1-4)GlcNAc
# Procedure, shortened: as §1
# Neu5Ac(a2-8)Neu5Ac = biological target: Neu5Ac(a2-8)Neu5Ac
# Procedure, shortened: as §1
# [3] = biological target: Neu5Ac(a2-8)Neu5Ac(a2-3)Gal(b1-3)GalNAc(b1-4)[Neu5Ac(a2-3)]Gal(b1-4)Glc
# Procedure, shortened: as §1
# [4] = biological target: Neu5Ac(a2-8)Neu5Ac(a2-3)Gal(b1-3)GalNAc(b1-4)[Neu5Ac(a2-8)Neu5Ac(a2-3)]Gal(b1-4)Glc
# Procedure, shortened: as §1
# [5] = biological target: Neu5Ac(a2-8)Neu5Ac(a2-3)Gal(b1-4)Glc
# Procedure, shortened: as §1
# [6] = biological target: Neu5Ac(a2-8)Neu5Ac(a2-3)Gal(b1-4)GlcNAc
# Procedure, shortened: as §1
# [7] = biological target: Neu5Ac(a2-8)Neu5Ac(a2-3)[Gal(b1-3)GalNAc(b1-4)]Gal(b1-4)Glc
# Procedure, shortened: as §1
# [8] = biological target: Neu5Ac(a2-8)Neu5Ac(a2-3)[GalNAc(b1-4)]Gal(b1-4)Glc
# Procedure, shortened: as §1
# [9] = biological target: Neu5Ac(a2-8)Neu5Ac(a2-8)Neu5Ac
# Procedure, shortened: as §1
# [10] = biological target: Neu5Ac(a2-8)Neu5Ac(a2-8)Neu5Ac(a2-3)Gal(b1-4)Glc
# Procedure, shortened: as §1
# [11] = biological target: Neu5Ac(a2-8)Neu5Ac(a2-8)Neu5Ac(a2-3)[Gal(b1-3)GalNAc(b1-4)]Gal(b1-4)Glc
# Procedure, shortened: as §1
# [12] = biological target: Neu5Ac(a2-8)Neu5Ac(a2-8)Neu5Ac(a2-3)[GalNAc(b1-4)]Gal(b1-4)Glc
# Procedure, shortened: as §1
# [13] = biological target: Neu5Ac(a2-8)Neu5Ac(a2-8)Neu5Ac(a2-8)Neu5Ac(a2-3)[GalNAc(b1-4)]Gal(b1-4)Glc
# Procedure, shortened: as §1
# [14] = biological target: Neu5Ac(a2-8)Neu5Gc(a2-3)Gal(b1-4)GlcNAc
# Procedure, shortened: as §1
# [15] = biological target: Neu5Ac(b2-6)Gal(b1-4)GlcNAc
# Procedure, shortened: as §1
# Neu5Ac(b2-6)GalNAc = biological target: Neu5Ac(b2-6)GalNAc
# Procedure, shortened: as §1
# [16] = biological target: Neu5Ac9Ac(a2-3)Gal(b1-3)GlcNAc
# Procedure, shortened: as §1
# [17] = biological target: Neu5Ac9Ac(a2-3)Gal(b1-4)GlcNAc
# Procedure, shortened: as §1
# [18] = biological target: Neu5Ac9Ac(a2-6)Gal(b1-4)GlcNAc
# Procedure, shortened: as §1
# [19] = biological target: Neu5Gc(a2-3)Gal(b1-3)GlcNAc
# Procedure, shortened: as §1
# [20] = biological target: Neu5Gc(a2-3)Gal(b1-3)[Fuc(a1-4)]GlcNAc
# Procedure, shortened: as §1
# Neu5Gc(a2-3)Gal(b1-4)Glc = biological target: Neu5Gc(a2-3)Gal(b1-4)Glc
# Procedure, shortened: as §1
# [21] = biological target: Neu5Gc(a2-3)Gal(b1-4)GlcNAc
# Procedure, shortened: as §1
# [22] = biological target: Neu5Gc(a2-3)Gal(b1-4)GlcNAc(b1-3)Gal(b1-4)GlcNAc(b1-2)Man(a1-3)[Neu5Gc(a2-3)Gal(b1-4)GlcNAc(b1-3)Gal(b1-4)GlcNAc(b1-2)Man(a1-6)]Man(b1-4)GlcNAc(b1-4)GlcNAc
# Procedure, shortened: as §1
# [23] = biological target: Neu5Gc(a2-3)Gal(b1-4)[Fuc(a1-3)]GlcNAc
# Procedure, shortened: as §1
# [24] = biological target: Neu5Gc(a2-6)Gal(b1-4)GlcNAc
# Procedure, shortened: as §1
# Neu5Gc(a2-6)GalNAc = biological target: Neu5Gc(a2-6)GalNAc
# Procedure, shortened: as §1
# [25] = biological target: Neu5Gc(a2-8)Neu5Ac(a2-3)Gal(b1-4)GlcNAc
# Procedure, shortened: as §1
# [26] = biological target: Neu5Gc(a2-8)Neu5Gc(a2-3)Gal(b1-4)GlcNAc
# Procedure, shortened: as §1
# [27] = biological target: Neu5Gc(a2-8)Neu5Gc(a2-3)Gal(b1-4)GlcNAc(b1-3)Gal(b1-4)GlcNAc
# Procedure, shortened: as §1
# [28] = biological target: Neu5Gc(a2-8)Neu5Gc(a2-6)Gal(b1-4)GlcNAc
# Procedure, shortened: as §1
# [29] = biological target: Neu5Gc(b2-6)Gal(b1-4)GlcNAc
# Procedure, shortened: as §1
binder,measurement,setting,value
B1,glycan array binding signal (z-score),[1],1.28
same,glycan array binding signal (z-score),[2],0.725
same,glycan array binding signal (z-score),Neu5Ac(a2-8)Neu5Ac,-1.08
same,glycan array binding signal (z-score),[3],1.84
same,glycan array binding signal (z-score),[4],-0.356
same,glycan array binding signal (z-score),[5],0.038
same,glycan array binding signal (z-score),[6],-0.225
same,glycan array binding signal (z-score),[7],-0.02
same,glycan array binding signal (z-score),[8],0.717
same,glycan array binding signal (z-score),[9],0.308
same,glycan array binding signal (z-score),[10],0.1
same,glycan array binding signal (z-score),[11],-0.657
same,glycan array binding signal (z-score),[12],-1.22
same,glycan array binding signal (z-score),[13],-0.452
same,glycan array binding signal (z-score),[14],0.36
same,glycan array binding signal (z-score),[15],0.205
same,glycan array binding signal (z-score),Neu5Ac(b2-6)GalNAc,-0.664
same,glycan array binding signal (z-score),[16],-0.055
same,glycan array binding signal (z-score),[17],-0.03
same,glycan array binding signal (z-score),[18],-1.41
same,glycan array binding signal (z-score),[19],-1.05
same,glycan array binding signal (z-score),[20],0.763
same,glycan array binding signal (z-score),Neu5Gc(a2-3)Gal(b1-4)Glc,-0.393
same,glycan array binding signal (z-score),[21],0.032
same,glycan array binding signal (z-score),[22],-0.52
same,glycan array binding signal (z-score),[23],-0.22
same,glycan array binding signal (z-score),[24],1.49
same,glycan array binding signal (z-score),Neu5Gc(a2-6)GalNAc,1.14
same,glycan array binding signal (z-score),[25],1.12
same,glycan array binding signal (z-score),[26],1.77
same,glycan array binding signal (z-score),[27],-0.961
same,glycan array binding signal (z-score),[28],-0.866
same,glycan array binding signal (z-score),[29],-1.24

# Retrieved one by one from the entries so far:
binder,measurement,setting,value
B1,glycan array binding signal (z-score),Neu5Ac(a2-8)Neu5Ac,-1.08
same,glycan array binding signal (z-score),[22],-0.52

# — the supplement of paper PMC8728848
